The list shows a part of the results. Shown are side measurements of this screen, not its main read-out; they come without a call. Most of these compounds were active or inconclusive in the main read-out, so they are no random draw. The note in brackets gives the kind of curve behind each potency; many fits are weak.
Experiment: qHTS Assay to Find Inhibitors of Chronic Active B-Cell Receptor Signaling
Conditions: ABC-DLBCL IkBa-CBG/CBR reporter, luminescence ratio (green luciferase fused to IkBa over red control in TMD8 lymphoma cells), 4 h
Summary of the method: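 Compounds up to 46 uM were incubated four hours with TMD8 cells whose green CBG68 luciferase is fused to IkappaBalpha; red CBR luminescence normalised the signal, and concentration-effect curves were fitted to fusion, red and ratio data.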

[1] = measured here: CBR red luminescence, cell number
[2] = measured here: IkBa-CBG green luminescence

| Structure (SMILES) | AC50 [1] | AC50 [2] |
| --- | --- | --- |
| COc1ccc(C)cc1S(=O)(=O)N(C)CC(=O)Nc1ccc2c(c1)OCCO2 | 29.1 µM [falling, single point] | – |
| CC(Oc1cccc(Cl)c1)C(=O)Nc1ccncc1 (centres undefined) | 5.01 µM [falling, single point] | – |
| CCCC1Cc2c(sc(N)c2C#N)CO1 (centres undefined) | 12.6 µM [rising, partial curve, poor fit] | – |
| O=C(/C=C1\NC2(CCCC2)Cc2ccccc21)C(=O)N/N=C/c1ccccc1O | 9.2 µM [rising, partial curve, poor fit] | – |
| CCN(c1ccccc1)S(=O)(=O)c1ccc(C(=O)Nc2ccccn2)cc1 | 29.1 µM [falling, partial curve, poor fit] | – |
| Cn1ncc2c(NNC(=O)c3ccccc3Cl)ncnc21 | 29.1 µM [falling, single point] | – |
| COc1ccc2nc(NC(=O)Nc3ccccc3OC)sc2c1 | 0.562 µM [falling, full curve, poor fit] | – |
| CN(C)/C=C1/Sc2ccccc2C1=O | 10 µM [falling, partial curve, poor fit] | – |
| COc1cccc2c1C(=O)c1c(O)c3c(c(O)c1C2=O)C[C@](O)(C(C)=O)C[C@H]3O[C@@H]1C[C@@H](N)[C@@H](O)[C@@H](C)O1 | 4.61 µM [falling, full curve] | – |
| CCOC(=O)c1cnc2ccc(C(=O)OC)cc2c1NCc1ccco1 | 23.1 µM [falling, partial curve, poor fit] | – |
| CCn1c(=N)c(S(=O)(=O)c2ccc(Cl)cc2)cc2c(=O)n3ccccc3nc21 | 12.6 µM [rising, partial curve, poor fit] | – |
| O=C(N/N=C/c1ccsc1)c1cc2ccccc2o1 | 8.91 µM [falling, partial curve, poor fit] | – |
| CCCc1ccc(C(=O)NNc2ccccc2F)cc1 | 22.4 µM [falling, partial curve, poor fit] | – |
| COc1ccc(NC(=O)/C(C#N)=C/c2ccc(Sc3nncn3C)c([N+](=O)[O-])c2)cc1 | 35.5 µM [falling, single point] | 22.4 µM [falling, single point] |
| COc1ccc(-c2[nH]ncc2N=Nc2ccccc2)cc1 | 6.31 µM [rising, partial curve, poor fit] | – |
| COCCN1C(=O)N(c2ccc(Cl)cc2)C(=O)C1CC(=O)Nc1cc(OC)cc(OC)c1 (centres undefined) | 12.6 µM [rising, single point] | – |
| N#CC1=C(N)OC2=C(CCc3ccccc32)C1c1ccccc1Cl (centres undefined) | 8.2 µM [falling, partial curve, poor fit] | – |
| CCOC(=O)C(Cc1ccc(NC(=O)/C(=C/c2ccc(OC(C)=O)cc2)NC(C)=O)cc1)N1C(=O)c2ccccc2C1=O (centres undefined) | 10 µM [falling, partial curve, poor fit] | – |
| Cc1nn(CC(C)C)c(Cl)c1C(=O)N(C)CC(=O)Nc1c(Cl)cccc1Cl | 0.112 µM [rising, full curve, poor fit] | – |
| CCN1C(=O)c2ccc(C(=O)Nc3cccc(C(=O)O)c3)cc2C1=O | 11.2 µM [falling, partial curve, poor fit] | – |

3 of the compounds above, field by field:
Cn1ncc2c(NNC(=O)c3ccccc3Cl)ncnc21
  AC50 [1]: 29.1 µM [falling, single point]
COc1ccc2nc(NC(=O)Nc3ccccc3OC)sc2c1
  AC50 [1]: 0.562 µM [falling, full curve, poor fit]
CN(C)/C=C1/Sc2ccccc2C1=O
  AC50 [1]: 10 µM [falling, partial curve, poor fit]

Continued.

| Structure (SMILES) | AC50 [1] | AC50 [2] |
| --- | --- | --- |
| CCc1ccc(CNc2ccc(N3CCN(C(C)=O)CC3)cc2)cc1 | 2.06 µM [falling, partial curve, poor fit] | – |
| COc1cccc(NC(=O)CSc2nnc3cc(C)nc(N)n23)c1 | 0.708 µM [rising, partial curve, poor fit] | – |
| COc1ccc(S(=O)(=O)N(C)C[C@H]2Oc3ccc(NS(=O)(=O)c4ccccc4)cc3C(=O)N([C@H](C)CO)C[C@@H]2C)cc1 | 14.6 µM [rising, partial curve, poor fit] | 9.2 µM [falling, partial curve, poor fit] |
| Cc1c(C2(O)CCCCC2)[nH]c2ccc(C(F)(F)F)cc12 | 0.461 µM [rising, partial curve, poor fit] | – |
| CCCN(CCC)S(=O)(=O)c1ccc(C(=O)Nc2nc(-c3ccccc3)c(C(=O)OCC)s2)cc1 | – | 23.1 µM [rising, partial curve, poor fit] |
| CN(NC1OC(=O)c2ccccc21)c1ncc(Cl)cc1C(F)(F)F (centres undefined) | 8.91 µM [rising, partial curve, poor fit] | – |
| COC(=O)Oc1ccc(/C=N/NC(=O)CSCc2ccccc2Br)cc1OC | 0.461 µM [falling, full curve] | – |
| Cc1csc(SCC(=O)Nc2nc(-c3ccccc3)cs2)n1 | 32.6 µM [falling, partial curve, poor fit] | – |
| COc1ccc(OC)c(Nc2ncnc3c2cnn3-c2ccc(C)cc2)c1 | 1.26 µM [falling, full curve, poor fit] | – |
| O=C(COC(=O)c1cccc(S(=O)(=O)N2CCCCC2)c1)NC1CCCCC1 | 3.66 µM [rising, partial curve] | – |
| CCC1CCCCN1S(=O)(=O)c1ccc(NC(=O)c2ccncc2)cc1 (centres undefined) | 35.5 µM [falling, single point] | – |
| CC(C)Oc1ccc(/C(O)=C2/C(=O)C(=O)N(CCN(C)C)C2c2ccco2)cc1 (centres undefined) | 6.51 µM [falling, single point] | – |
| Cc1ncc(CO)c2cc(C(N)=O)c(=Nc3ccccc3)oc12 | 14.1 µM [falling, partial curve, poor fit] | – |
| C#CCOCCOCCOCCNc1nc(N2CCN(C(=O)CCCCCCCCCCNC(=O)[C@H](CCCCN)n3cc(CCO)nn3)CC2)nc(N2CCN(C(=O)CCCCCCCCCCNC(=O)[C@H](CCCCN)n3cc(CCO)nn3)CC2)n1 | 29.1 µM [rising, single point] | 23.1 µM [falling, single point] |
| CCOC(=O)COc1ccc2c(=O)c(-c3ccc(OC)c(OC)c3)c(C(=O)OCC)oc2c1 | 12.6 µM [falling, partial curve] | – |
| O=C(N/N=C/c1cccc2cccnc12)c1ccccc1O | 14.1 µM [falling, partial curve, poor fit] | 17.8 µM [falling, single point] |
| S=C(Nc1ccc2snnc2c1)N1CCN(c2ccccn2)CC1 | 10.3 µM [rising, partial curve, poor fit] | – |
| Cc1noc(C)c1COc1ccc(C(=O)NCC2CCCO2)cc1 (centres undefined) | 12.6 µM [rising, partial curve, poor fit] | – |
| CCN(C(=O)COC(=O)c1ccccc1NC(=O)c1ccco1)C1CCS(=O)(=O)C1 (centres undefined) | 12.6 µM [falling, partial curve, poor fit] | – |
| CNC(=O)c1cccc(NC(=O)C(C)c2ccc3cc(OC)ccc3c2)c1 (centres undefined) | 3.55 µM [rising, partial curve, poor fit] | 8.91 µM [falling, partial curve] |

| Structure (SMILES) | AC50 [1] | AC50 [2] |
| --- | --- | --- |
| CCCc1cc(C(=O)Nc2cccc(Cl)c2)no1 | 16.4 µM [falling, single point] | – |
| COc1ccc(C(OCC(O)CNCCc2ccccc2)c2ccc(OC)cc2)cc1 (centres undefined) | 25.1 µM [falling, single point] | – |
| C[C@H](N=C1NS(=O)(=O)c2ccccc21)C(=O)OCc1cc([N+](=O)[O-])cc2c1OCOC2 | 5.62 µM [rising, single point] | – |
| O=C(C[n+]1cn(C(F)F)c2ccccc21)c1ccc(OC(F)F)cc1 | 22.4 µM [falling, single point] | – |
| COc1ccc(C[C@H]2CN3C(=NC[C@H]3Cc3ccccc3)N2CCNC(=O)CCC2CCCCC2)cc1 | 15.8 µM [falling, single point] | – |
| CCc1c(C)nc(SCC(=O)c2cccs2)c(C#N)c1C | 18.4 µM [falling, partial curve] | – |
| COc1ccc(N(CN2C(=O)C3C4C=CC(C4)C3C2=O)C(=O)c2ccco2)cc1 (centres undefined) | 31.6 µM [rising, single point] | – |
| O=C(NCCNc1ccccc1[N+](=O)[O-])c1ccccc1F | 35.5 µM [falling, single point] | – |
| O=c1[nH]c2ccccc2n1CCCSc1cnc2ccccc2n1 | 6.51 µM [rising, single point] | – |
| O=C(CSc1nc2ccccc2c(=O)n1-c1ccc(F)cc1)NC1CCS(=O)(=O)C1 (centres undefined) | 20.6 µM [rising, partial curve, poor fit] | – |
| CCN1C(=O)c2cccc3c(N)ccc1c23 | 9.2 µM [rising, partial curve] | – |
| CC1(C)Cc2c(sc(NC(=S)NC(=O)c3ccccc3)c2C(=O)O)CO1 | 1.26 µM [falling, full curve, poor fit] | – |
| COc1ccc(OC(=O)c2cnn(-c3ccccc3)c2C)cc1 | 0.651 µM [rising, full curve, poor fit] | – |
| O=S1(=O)CCC(NC2CCCC2)C1 (centres undefined) | 15.8 µM [rising, partial curve, poor fit] | – |
| COc1cc(OC)c(CNC2CCCCCC2)cc1Br | 11.2 µM [falling, partial curve, poor fit] | – |
| Cc1ccc(NC(=O)Nc2sc(=S)n(C)c2C)cc1 | 11.6 µM [rising, partial curve, poor fit] | – |
| CC(=O)Nc1ccc(-c2csc(-c3cccnc3)n2)cc1 | 11.2 µM [rising, single point] | – |
| CCOc1ccc2nc(NC(=O)CSc3nc(SC)ns3)sc2c1 | 1.41 µM [rising, full curve, poor fit] | – |
| Cn1c(SCC(=O)Nc2ccc3cn[nH]c3c2)nnc1-c1cnccn1 | 35.5 µM [falling, single point] | – |

From PubChem BioAssay AID493014 (National Center for Advancing Translational Sciences (NCATS), 2011)
